Assay results taken from patent publication US9193744B2, “Heterocyclic nuclear hormone receptor modulators” (AbbVie Inc., priority 2012, dated 2015).

Amino acid sequences for entries named in this document (tags omitted).
UniProt P04150, whole entry: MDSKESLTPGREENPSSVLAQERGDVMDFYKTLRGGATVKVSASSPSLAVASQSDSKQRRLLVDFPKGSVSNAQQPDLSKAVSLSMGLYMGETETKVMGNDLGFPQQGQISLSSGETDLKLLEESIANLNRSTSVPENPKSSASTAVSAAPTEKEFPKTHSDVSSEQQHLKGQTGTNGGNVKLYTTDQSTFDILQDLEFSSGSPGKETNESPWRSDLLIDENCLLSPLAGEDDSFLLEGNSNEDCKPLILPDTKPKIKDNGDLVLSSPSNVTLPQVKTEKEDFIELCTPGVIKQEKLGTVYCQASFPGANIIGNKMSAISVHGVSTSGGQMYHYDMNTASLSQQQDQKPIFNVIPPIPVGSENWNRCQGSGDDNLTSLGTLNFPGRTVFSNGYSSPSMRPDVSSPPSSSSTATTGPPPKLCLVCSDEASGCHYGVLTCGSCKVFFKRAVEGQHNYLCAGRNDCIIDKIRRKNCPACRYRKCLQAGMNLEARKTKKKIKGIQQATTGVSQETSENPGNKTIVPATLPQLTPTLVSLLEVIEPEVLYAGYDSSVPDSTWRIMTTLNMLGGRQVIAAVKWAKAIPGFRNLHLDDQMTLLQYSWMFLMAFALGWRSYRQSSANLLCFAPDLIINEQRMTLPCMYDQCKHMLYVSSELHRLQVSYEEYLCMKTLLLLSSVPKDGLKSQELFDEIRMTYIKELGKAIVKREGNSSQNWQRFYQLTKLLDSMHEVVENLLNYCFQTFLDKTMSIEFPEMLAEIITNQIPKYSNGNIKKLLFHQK

Experiments:
[1] = biological target: Glucocorticoid Receptor (GR) (Homo sapiens, UniProt P04150); assay: GR Fluorescence Polarization Assay (PolarScreen Glucocorticoid Receptor Competitor Assay, Red); conditions: read-out: GR binding; fluorescence polarization binding ranges
Description: Fluorescence polarization assays were carried out using the PolarScreen™ Glucocorticoid Receptor Competitor Assay, Red from Invitrogen (P2893). The assay buffer was prepared according to the manufacturer's protocol and used to dilute the fluorescent glucocorticoid and GR. Compounds were prepared and serial diluted 1:4 in DMSO. Compound, fluorescent glucocorticoid and GR were added in a final volume of 20 μL and incubated overnight at 4° C. Fluorescent polarization was measured on the PerkinElmer Envision®. Fluorescence polarization binding ranges measured using GR Fluorescence Polarization Assay: […]

[2] = system: IL-6; assay: A549 Cell Assay to Measure Inflammation Markers (inhibition of IL-1β-induced IL-6); conditions: read-out: A549 cell assay; A549 cells
Description: A549 Cell Assay to Measure Inflammation Markers
A549 cells were seeded (3E4 cells/well) in 96-well assay plates in culture medium (100 μL/well., F-12 K base media, supplemented with 10% FBS and 100 μ/mL-100 μg/mL Pen-Strep.) After overnight culture in an incubator set to 37° C., 4.9% CO2, and 90% humidity, media was removed from adherent cells by aspiration and replaced with 100 μL/well Assay Medium (F-12 K base media supplemented with 5% charcoal stripped calf sera and 100 U/mL-100 μg/mL Pen-Strep.) Compounds were prepared in DMSO and serial diluted (1:3, 1:4, or 1:5) with DMSO in Dilution Plate(s) to give 10 dilution points for each compound tested. Further dilution (1:250) of compound was made into assay medium and 50 μL/well diluted drug or DMSO/media control was applied to cells. After a 1 h pre-incubation in a temperature, CO2, and humidity controlled incubator, set to 37° C., 50 μL/well of 4 ng/mL IL-1β diluted in assay media, was applied to cultures. Assay plates, with a final volume of 200 μL/well and final concentrations of 0.1% DMSO and 1 ng/mL IL-1β were returned to incubator for a four h incubation period. Next, plates were spun at 183 g (1000 rpm in Beckman/Coulter Allegra 6KR centrifuge) for 10 min. Cell-free supernatant (150 μL/well) was collected and IL-6 was measured by MSD kit, following protocol of manufacturer, and using MSD SECTOR Imager 6000 instrument. […]

`CS(=O)(=O)NC[C@@]12CC[C@](O)(C(F)(F)F)C[C@H]1CCCc1cc3c(cnn3-c3ccc(F)cc3)cc12` was tested, and the pIC50 [1] was greater than 7.00 and the pIC50 [2] was greater than 7.00.
In the case of `CCS(=O)(=O)NC[C@@]12CC[C@](O)(C(F)(F)F)C[C@H]1CCCc1cc3c(cnn3-c3ccc(F)cc3)cc12`, the pIC50 [1] was 6.00 to 7.00.

pIC50: −log10 of the molar value. The structures given here were assigned with low confidence; some may be wrong.
